Source: US20120107317A1, “USE OF CYTOPLASMIC C-MYC FOR REGULATING IMMUNE RESPONSES” (priority 2010, published 2012)
These are yes or no findings as the source states them, for the method shown. Binding seen in cells or lysates may run through a third protein. Some binding calls cover weakened binding; strength is not graded here.

Amino acid sequences for entries named in this document (tags omitted). A change or cut given only in a name is not applied to a line headed by its entry.
UniProt P25963: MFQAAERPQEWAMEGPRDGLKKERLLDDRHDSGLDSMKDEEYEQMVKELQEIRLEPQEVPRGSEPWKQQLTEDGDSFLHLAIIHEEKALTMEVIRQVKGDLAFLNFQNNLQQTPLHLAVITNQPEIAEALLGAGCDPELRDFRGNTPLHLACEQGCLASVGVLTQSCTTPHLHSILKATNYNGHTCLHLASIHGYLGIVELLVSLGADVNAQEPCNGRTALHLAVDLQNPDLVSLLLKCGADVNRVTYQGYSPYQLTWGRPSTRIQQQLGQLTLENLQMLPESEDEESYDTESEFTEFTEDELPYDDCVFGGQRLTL
UniProt P01106: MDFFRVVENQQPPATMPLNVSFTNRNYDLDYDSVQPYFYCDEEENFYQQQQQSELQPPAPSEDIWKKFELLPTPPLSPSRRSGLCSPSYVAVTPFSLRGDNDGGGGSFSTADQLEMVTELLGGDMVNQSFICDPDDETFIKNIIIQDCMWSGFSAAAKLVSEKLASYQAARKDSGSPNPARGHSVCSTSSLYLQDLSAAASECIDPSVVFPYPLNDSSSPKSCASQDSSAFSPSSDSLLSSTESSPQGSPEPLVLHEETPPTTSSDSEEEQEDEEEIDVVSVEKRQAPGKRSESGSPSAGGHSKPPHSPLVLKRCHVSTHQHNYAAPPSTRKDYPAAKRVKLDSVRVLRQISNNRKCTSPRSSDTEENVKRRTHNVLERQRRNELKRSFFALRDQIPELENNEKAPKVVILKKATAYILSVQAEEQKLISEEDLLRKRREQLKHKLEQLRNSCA

Assays:
[1] = target: IκBα (endogenous protein of primary human blood macrophages) (human) (UniProt P25963); assay: co-immunoprecipitation from PBMac lysates, Western blot
[2] = target: IκBα (endogenous protein of primary human blood macrophages) (human) (UniProt P25963); assay: co-immunoprecipitation from PBMac lysates, Western blot (FIG. 10 legend)
[3] = target: IκBα (endogenous protein of primary human blood macrophages) (human) (UniProt P25963); assay: co-immunoprecipitation with anti-c-Myc antibody from PBMac lysates, Western blot
[4] = target: IκBα (endogenous protein of primary human blood macrophages) (human) (UniProt P25963); assay: reciprocal co-immunoprecipitation with anti-IκBα antibodies from PBMac lysates, Western blot

Measured: binding

c-Myc (endogenous protein of primary human blood macrophages) (from UniProt P01106 16-454)
binds: all assays above
